Results taken from ChEMBL document CHEMBL4513139, “CO-ADD screening of University of Strathclyde (UK) compounds”.
The list shows a part of the results. Potency and affinity values are given separately.

test system: Pseudomonas aeruginosa; conditions: Concentration 32 ug.mL-1; ASSAY_TEST Inhibition of Bacterial Growth; detection method Absorption (OD600); MEDIA CAMHB; plate type 384well; NBS; CORNING #3640; time 18 hr

Compound | Inhibition [%]
CCOP(=O)(OCC)C(Cc1cn(Cc2cnc(C)nc2N)nn1)C(=O)O.O=C(O)C(F)(F)F (stereo unspecified) | -21.05
